Test results: the supplement of paper PMC7238544
Counter-ions that a name gives are not always drawn. ± gives the standard deviation of the averaged measurements. The list shows a part of the results. The data scatter; read single values as rough.

system: hAMSC donor 1; experiment: transfection efficiency (EGFP+ cells / Hoechst count) fold change vs vehicle control (ratio); hAMSC are human adipose-derived mesenchymal stem cells given an EGFP-luciferase plasmid by lipofection; higher = enhanced transfection; conditions: priming compound concentration 0.2 µM

SMILES	transfection efficiency
CN[C@@H]1[C@H](O)[C@H](NC)[C@H]2O[C@@]3(O)C(=O)C[C@@H](C)O[C@H]3O[C@@H]2[C@H]1O [Spectinomycin]	1.28 ± 0.17
C=C[C@H]1CN2CC[C@H]1C[C@@H]2[C@@H](O)c1ccnc2ccc(OC)cc12 [Quinidine]	1.27 ± 0.27
N[C@@H]1CONC1=O [D-Cycloserine]	1.1 ± 0.3
CC(C)NCC(O)c1ccc(O)c(O)c1 (stereo not drawn) [Isoproterenol hydrochloride]	0.97 ± 0.1
NC(=O)c1cccnc1 [Nicotinamide]	0.9 ± 0.24
CC(=O)Oc1ccccc1C(=O)Nc1ncc([N+](=O)[O-])s1 [Nitazoxanide]	0.842 ± 0.056
Cc1nc2ccccn2c(=O)c1CCN1CCC(C(=O)c2ccc(F)cc2)CC1 [Pirenperone]	0.926 ± 0.36
CC(C)(C(=O)O)c1ccc(C(O)CCCN2CCC(C(O)(c3ccccc3)c3ccccc3)CC2)cc1 (stereo not drawn) [Fexofenadine hydrochloride]	0.752 ± 0.067
CC1CNc2c(cccc2S(=O)(=O)N[C@@H](CCCNC(=N)N)C(=O)N2CC[C@@H](C)C[C@@H]2C(=O)O)C1 (stereo partly drawn) [Argatroban]	1.27 ± 0.21
O=c1[nH]cnc2c1ncn2[C@H]1CC[C@@H](CO)O1 [Didanosine]	0.938 ± 0.091
CC(C)NCC(O)COc1ccc(COCCOC(C)C)cc1 (stereo not drawn) [Bisoprolol fumarate]	0.927 ± 0.27
CCN1CCN(c2cc3c(cc2F)c(=O)c(C(=O)O)cn3C2CC2)CC1 [Enrofloxacin]	0.676 ± 0.065
O=C1N(c2ccccc2)c2ccccc2C1(Cc1ccncc1)Cc1ccncc1 [Linopirdine dihydrochloride]	0.777 ± 0.15
